Assay results: PubChem BioAssay AID2099 (Broad Institute, 2009)
The whole screen tested about 330,000 compounds, of which about 230 (0.07%) were called active. The inconclusive results got no clear call from the source; some entries with a clear call stand among them for comparison.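 The calls were made as follows: active = more than half of a compound's replicate wells show inhibition beyond 50%, single wells judged on their own value; inconclusive = some, but no more than half, of replicates pass 50% inhibition; inactive = no replicate passes 50% inhibition.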

By UniProt entry, the sequences of proteins in these tests, tags left out. Residues count along the entry.
UniProt Q9H3R0, 1-420 limits assumed: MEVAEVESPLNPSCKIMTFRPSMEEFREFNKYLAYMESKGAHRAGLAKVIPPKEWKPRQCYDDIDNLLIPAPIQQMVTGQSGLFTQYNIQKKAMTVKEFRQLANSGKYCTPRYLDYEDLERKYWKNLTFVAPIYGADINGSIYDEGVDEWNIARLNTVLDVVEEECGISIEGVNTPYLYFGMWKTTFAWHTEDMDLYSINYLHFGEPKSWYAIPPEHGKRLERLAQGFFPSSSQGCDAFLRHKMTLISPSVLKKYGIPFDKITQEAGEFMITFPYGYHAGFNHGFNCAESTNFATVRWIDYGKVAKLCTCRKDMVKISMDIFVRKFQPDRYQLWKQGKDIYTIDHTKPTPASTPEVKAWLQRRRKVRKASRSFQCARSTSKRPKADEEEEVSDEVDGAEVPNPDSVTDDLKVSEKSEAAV

Each molecule was assayed against Lysine-specific demethylase 4C (Homo sapiens) (UniProt Q9H3R0) (assay: inhibitors of GASC-1 histone demethylase, primary screen, biochemical, fluorescence, DELFIA europium (AID 2099;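 also: signal counts dimethyl H3K9 product captured on neutravidin plate; 0% = median of DMSO wells and 100% = 0.3 times that DMSO median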)). Conditions: GST-JMJD2C(1-420) H3K9me3 demethylation, at 2.35 µM, hits give high values.
With `COc1cc(/C=C2/C(=O)N(c3ccc(Br)cc3)N=C2C)cc(OC)c1OC` the inhibition was inconclusive: -67%.
For `CCc1cccc(NC(=O)CCS(=O)(=O)c2ccc(Br)cc2)c1`, the inhibition was inactive: -4.7%.
In the case of `CC(C)(C)n1ncc2c(=O)n(CC(=O)c3ccc(Cl)cc3)cnc21`, the inhibition is reported as inactive: 0.087%.
For `CC(C)=CCOc1c2ccoc2cc2oc(=O)ccc12`, the inhibition was inconclusive: -128%.
In the case of `Cc1noc(C)c1CSc1ccc(Br)cc1`, the inhibition is reported as inconclusive: -143%.
With `Cc1c(NC(=O)c2ccc(C(=O)Nc3c(C)n(C)n(-c4ccccc4)c3=O)cc2)c(=O)n(-c2ccccc2)n1C` the inhibition was inactive: 11.7%.
For `Cc1oc2cc3oc(=O)c(CCC(=O)N4C[C@H]5C[C@@H](C4)c4cccc(=O)n4C5)c(C)c3cc2c1C`, the inhibition was inconclusive: -157%.
For `CCN(Cc1ccccc1)S(=O)(=O)c1ccc(C(=O)N(CCCN(C)C)c2nc3c(C)c(C)ccc3s2)cc1`, the inhibition was inconclusive: -165%.
`NC(=O)c1ccc(-c2nnn(CC(=O)N(C3CCCC3)C3CCS(=O)(=O)C3)n2)cc1` (centres undefined) was tested, and the inhibition was inactive: 4.43%.
`COC(=O)[C@]1(CC(C)C)N[C@H](c2ccc(-c3cccc(Cl)c3)cc2)[C@@H]2C(=O)N(C)C(=O)[C@@H]21` was tested, and the inhibition was inconclusive: -394%.
For `CCOC(=O)C(C)Sc1ncc(OC)c(Sc2ccc(Cl)cc2)n1` (centres undefined), the inhibition was inactive: -0.867%.
`CN(C/C=C/C#CC(C)(C)C)Cc1cccc2ccccc12` was tested, and the inhibition was inconclusive: -60.7%.
`O=C(COc1ccc2c(c1)oc(=O)c1ccccc12)NC(Cc1ccc(Cl)cc1)C(=O)O` (centres undefined) was tested, and the inhibition was inconclusive: -233%.
With `NC(CO)C(=O)NNCc1ccc(O)c(O)c1O` (centres undefined) the inhibition was inconclusive: -64.4%.
For `CC(C)[C@@H](N)C(=O)NCC1CCC(C(=O)N[C@@H](Cc2ccccc2)C(=O)O)CC1` (some centres undefined), the inhibition was inconclusive: -69.8%.
`CC(=O)Oc1cc2cccc(OC(C)=O)c(=O)c2c(OC(C)=O)c1OC(C)=O` was tested, and the inhibition was inactive: -12.8%.
With `O=C(CSc1nnc(-c2ccc(Br)o2)n1Cc1ccccc1)c1ccccc1F` the inhibition was inconclusive: -89.4%.
For `CCOc1cc(/C=C/C(=O)c2ccc(OC)c(CN3CCOCC3)c2)cc(Br)c1O`, the inhibition was inactive: -1.01%.
In the case of `Cc1nnsc1NC(=O)OCc1ccc(C(C)(C)C)cc1`, the inhibition is reported as inactive: 2.26%.
In the case of `Clc1ccc(-c2nnc(-c3ccccc3)c(-c3ccccc3)n2)cc1`, the inhibition is reported as inactive: -3.29%.
With `O=C(CC1NCCNC1=O)Nc1ccc(Oc2ccccc2)cc1` (centres undefined) the inhibition was inconclusive: -25.2%.
In the case of `Cc1nnsc1C(=O)N1CCCC(N2CCN(c3cccc(C(F)(F)F)c3)CC2)C1` (centres undefined), the inhibition is reported as inconclusive: -50.7%.
For `COc1ccc(CCNC(=O)CNS(=O)(=O)c2ccc(N(C)C)c([N+](=O)[O-])c2)cc1OC`, the inhibition was inactive: -6.17%.
`O=C(OCCOc1cccc(Cl)c1)c1cc(S(=O)(=O)N2CCOCC2)ccc1F` was tested, and the inhibition was inconclusive: -92.9%.
With `c1ccc(-c2nc(-c3ccc(-c4ccon4)s3)no2)cc1` the inhibition was inactive: 3.4%.
`Cc1cc(C(=O)N2CCN(S(C)(=O)=O)CC2)cs1` was tested, and the inhibition was inconclusive: -134%.
In the case of `CC(SCc1cc(=O)n2c([nH]c3ccccc32)c1C#N)C(=O)O` (centres undefined), the inhibition is reported as inconclusive: -139%.
With `CC(=O)NN1C(=O)/C(=C2/Sc3ccccc3N2C)SC1=S` the inhibition was inconclusive: -51.7%.
For `CC1(C)Cc2c(c(=S)nc(-c3ccccc3)n2CCOCCO)CO1`, the inhibition was inactive: 5.69%.
`O=C1N/C(=N/Nc2ccccc2)S/C1=C\c1ccccc1` was tested, and the inhibition was inactive: 9.7%.
In the case of `O=C(C[C@H]1C/C=C\CC[C@H](Cc2ccc(F)cc2)C(=O)OC[C@@H](Cc2c[nH]c3ccccc23)NC1=O)NCCO`, the inhibition is reported as inactive: 1.53%.
`CC(C)NC(=O)Cn1nnc(-c2cccc(NC(=O)c3ccccc3F)c2)n1` was tested, and the inhibition was inconclusive: -217%.
In the case of `CC(=O)O[C@H]1C[C@@]2(O)[C@@H](OC(=O)c3ccccc3)C3[C@@](C)([C@@H](O)C[C@H]4OC[C@@]34OC(C)=O)[C@@H](O)[C@H](OC(C)=O)C(=C1C)C2(C)C` (some centres undefined), the inhibition is reported as inconclusive: -391%.
With `COc1ccc(-c2csc(NC(=O)c3ccccc3NS(=O)(=O)c3ccc(C)cc3)n2)cc1` the inhibition was inconclusive: -50.2%.
In the case of `COc1ccc(CCNC(=O)[C@H](C)NC(=O)N2CCn3c2nc2ccccc23)cc1OC`, the inhibition is reported as inconclusive: -67.8%.
With `O=C(O)[C@@H]1CCCN1S(=O)(=O)c1cccc(S(=O)(=O)N2CCC[C@H]2C(=O)O)c1` the inhibition was inconclusive: -62.2%.
In the case of `C=C(C)CN1C(=O)C2(OCCO2)c2cc(Br)ccc21`, the inhibition is reported as inactive: 0.846%.
`c1csc(CNCc2ccncc2)c1` was tested, and the inhibition was inconclusive: -153%.
In the case of `COC(=O)Cn1c2ccc(C)cc2c2nc(C)sc21`, the inhibition is reported as inconclusive: -57.9%.
In the case of `CC(=O)Nc1ccc(NC(=O)CC(c2ccccc2)c2ccccc2)cc1`, the inhibition is reported as inconclusive: -58.5%.
For `Cc1cc(C)c(NC(=O)COC(=O)c2cccc3c2C(=O)c2ccccc2C3=O)c(C)c1`, the inhibition was inactive: 3.47%.
With `C[C@H](CO)N1C[C@H](C)[C@@H](CN(C)S(=O)(=O)c2ccc(F)cc2)Oc2ccc(NC(=O)C3CC3)cc2C1=O` the inhibition was active: 62%.
For `Cc1ccc(C)c(S(=O)(=O)N2CCN(C(=O)Cc3ccsc3)CC2)c1`, the inhibition was inactive: -11.9%.
With `Cc1c(Cl)cccc1NC(=S)NCCc1ccc(Cl)cc1` the inhibition was inconclusive: -69.1%.
For `Cc1ccc2c(c1)C(O)(CC(=O)/C=C/C=C/c1ccccc1)C(=O)N2` (centres undefined), the inhibition was inconclusive: -31.5%.
With `COC(=O)C1=C(C)N(CCc2cc(OC)c(OC)c(OC)c2)C(=O)N[C@H]1c1cccs1` the inhibition was active: 56.1%.
With `O=C(NCC(c1ccco1)N1CCN(c2ccc(F)cc2)CC1)c1cccs1` (centres undefined) the inhibition was inconclusive: -152%.
With `O=C(O)Cn1cc(/C=C/[N+](=O)[O-])c2ccccc21` the inhibition was inactive: 3.55%.
With `O=C(CNC(=O)c1cccc([N+](=O)[O-])c1)NC1CCCc2ccccc21` (centres undefined) the inhibition was inactive: 1.55%.
For `COc1ccc(-c2nnc(SC3CCOC3=O)n2C2CCCCC2)cc1OC` (centres undefined), the inhibition was inactive: 2.02%.
For `Cc1nc(N2CCN(C(=O)COc3ccccc3)CC2)c2c(C)c(C)sc2n1`, the inhibition was inconclusive: -50.3%.
For `Cc1ccccc1-c1ccc(=O)n(CC(=O)Nc2ccc(N3CCOCC3)cc2)n1`, the inhibition was active: 57.3%.
In the case of `CCOC(=O)c1oc2ccccc2c1NC(=O)c1cccc(OC)c1`, the inhibition is reported as inconclusive: -71.1%.
With `CC1CN(C(=O)CCc2cc(C(C)(C)C)c(O)c(C(C)(C)C)c2)CC(C)O1` (centres undefined) the inhibition was inconclusive: -55.4%.
In the case of `Cc1ccc(S(=O)(=O)N2CCC(C(=O)Nc3ccncc3)CC2)cc1`, the inhibition is reported as inconclusive: -65.5%.
`Cc1ccccc1NC(=O)CCCCCN1C(=O)[C@@H]2Cc3ccccc3CN2C1=O` was tested, and the inhibition was inconclusive: -108%.
`COc1cccc(-n2nnc3c(=O)n(Cc4ccccc4F)cnc32)c1` was tested, and the inhibition was active: 92.3%.
With `Cc1cc(C(=O)NNC(=O)CCCOc2ccccc2)c(C)o1` the inhibition was inconclusive: -154%.
With `CCCCNC(=O)[C@H](CSCc1ccccc1)N1Cc2ccccc2C1=O` the inhibition was inactive: 36.9%.
`CC(C)C(=O)c1ccc(O)c(O)c1` was tested, and the inhibition was inconclusive: -71.5%.
In the case of `Cc1cc(/C(N)=N/OC(=O)c2ccc(Cl)cc2)no1`, the inhibition is reported as inactive: 8.86%.
For `Cc1sc2ncnc(NCC(O)c3ccc([N+](=O)[O-])cc3)c2c1C` (centres undefined), the inhibition was inactive: -7.97%.
With `CCOc1ccc(OCCOc2cccc(C(F)(F)F)c2)cc1` the inhibition was inconclusive: -59.4%.
`Cc1cc(CN(C)C(=O)CC2C(=O)NCCN2Cc2ccc(-c3ccccc3)cc2)on1` (centres undefined) was tested, and the inhibition was inconclusive: -58.5%.
`CC(C)(C)n1nc2c(c1NC(=O)c1ccco1)CS(=O)C2` (centres undefined) was tested, and the inhibition was inconclusive: -60.3%.
In the case of `O=C(OCc1cc(=O)n2ccsc2n1)c1ccc(O)cc1O`, the inhibition is reported as inactive: 2.66%.
`Fc1cccc(-c2cc3nc4c(c(N5CCC6(CC5)OCCO6)n3n2)CCCC4)c1` was tested, and the inhibition was inconclusive: -148%.
For `CCOC(=O)c1cc2c(ccn2C)n1CC(=O)N1CCCC(C)C1` (centres undefined), the inhibition was inconclusive: -57.9%.
In the case of `CN1/C(=C/C2CC(=O)N(c3cccc4ccccc34)C2=O)C(C)(C)c2ccccc21` (centres undefined), the inhibition is reported as inactive: -2.82%.
In the case of `CC1CCCCC1NC(=O)Cn1[nH]c(=O)c2ccccc2c1=O` (centres undefined), the inhibition is reported as inconclusive: -51.9%.
For `O=C1c2ccccc2C(=O)N1CCSc1ccccc1`, the inhibition was inconclusive: -65.9%.
In the case of `C(=C/c1ccnc2nc(SC/C=C/c3ccccc3)nn12)/c1ccccc1`, the inhibition is reported as inactive: 8.46%.
`Cc1ccc(C(=O)N=c2sccn2C)o1` was tested, and the inhibition was inconclusive: -50.3%.
With `CC(C)Cc1nc(N2CCN(C(=O)c3ccco3)CC2)c(C#N)c2c1CCCC2` the inhibition was inconclusive: -91.3%.
`OC(CN1CCCCC1)CN1CCCCC1` was tested, and the inhibition was inconclusive: -80.2%.
With `Cc1ccc(C(=O)NCC(=O)OCCCn2c(=O)[nH]c3ccccc32)cc1` the inhibition was inconclusive: -154%.
`CC1CCCC(NC(=O)c2cccc(S(=O)(=O)N3CCN(c4ccccc4)CC3)c2)C1C` (centres undefined) was tested, and the inhibition was inconclusive: -167%.
In the case of `CCCCC(=O)N1CCN(c2nc3ccc(F)cc3s2)CC1`, the inhibition is reported as inactive: 5.8%.
With `CC(=O)N1CCc2cc(S(=O)(=O)NCc3ccc(C)cc3)ccc21` the inhibition was inactive: -4.54%.
In the case of `CSCSC1=C(C#N)C(c2ccccc2Cl)C(C(C)=O)=C(C)N1` (centres undefined), the inhibition is reported as inconclusive: -185%.
In the case of `CCOC(=O)c1c(NC(=O)c2noc(C)c2[N+](=O)[O-])sc(C(C)=O)c1C`, the inhibition is reported as inconclusive: -57.9%.
`O=C(Nc1ccnn1C1CCN(Cc2ccc(CO)o2)CC1)c1ccccc1` was tested, and the inhibition was inconclusive: -50.8%.
`CCN1C(=O)[C@H]2[C@@H](c3ccc(-c4ccc(OC)cc4)cc3)N[C@@](Cc3ccccc3)(C(=O)OC)[C@H]2C1=O` was tested, and the inhibition was inconclusive: -60.3%.
For `Cc1c(OCC(=O)NCc2ccccn2)ccc2c3c(c(=O)oc12)CCCC3`, the inhibition was inconclusive: -85.5%.
